The numbers were not newly measured in patent US4237139A, “4-(3-(4-Quinolyl)propyl)piperidines, their preparation and their use as medicines” (Pharmindustrie, priority 1976, dated 1980), which cites them from elsewhere.

The target of the series is benzodiazepine receptors in rat brain membranes. Conditions: read-out: KD, the affinity constant; constant of ^3 H-diazepam used in the Ki equation; cited from earlier work.

For the molecule `CN1C(=O)CN=C(c2ccccc2)c2cc(Cl)ccc21` [^3 H-diazepam], the Kd was 2.74 nM.
